Laboratory results from doi:10.1101/2020.05.14.095364 (bioRxiv, 2020).
No constants are given. Whether binding was seen depends on the method and setting. In cells and extracts the contact can be indirect. Some results given as binding are weak or reduced against the parent protein; the word gives no strength. Sequences can lack the tags named with a protein.

Columns and labels:
Test in all cases: pull-down
GST-CGN(1-70) = target: T1, GST-CGN(1-70) (canine, UniProt A7YH32 1-70)
T1 sequence (looked up): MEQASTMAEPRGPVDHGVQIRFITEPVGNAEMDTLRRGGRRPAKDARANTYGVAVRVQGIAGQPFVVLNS

[1] = target: T2, GST-tagged hCGN (1-353aa) (human) (UniProt Q9P2M7)
T2 sequence: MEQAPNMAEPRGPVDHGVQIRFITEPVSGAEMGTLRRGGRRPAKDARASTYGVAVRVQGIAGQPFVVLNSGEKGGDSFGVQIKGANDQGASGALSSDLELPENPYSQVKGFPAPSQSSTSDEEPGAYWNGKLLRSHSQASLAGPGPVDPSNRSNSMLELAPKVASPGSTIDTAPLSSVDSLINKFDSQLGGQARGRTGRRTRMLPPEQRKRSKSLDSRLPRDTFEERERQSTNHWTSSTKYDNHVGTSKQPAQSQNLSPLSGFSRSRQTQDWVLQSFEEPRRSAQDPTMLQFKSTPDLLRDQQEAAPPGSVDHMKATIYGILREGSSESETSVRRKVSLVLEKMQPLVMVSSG

[2] = target: T3, GST-tagged hCGNL1 (1-119aa) (human) (UniProt Q0VF96)
T3 sequence: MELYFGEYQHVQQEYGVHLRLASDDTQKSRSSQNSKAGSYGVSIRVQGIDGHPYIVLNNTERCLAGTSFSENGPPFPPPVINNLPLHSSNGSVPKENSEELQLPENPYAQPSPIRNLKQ

[3] = target: T4, GST-tagged hCGN (1-121aa) (human) (UniProt Q9P2M7)
T4 sequence: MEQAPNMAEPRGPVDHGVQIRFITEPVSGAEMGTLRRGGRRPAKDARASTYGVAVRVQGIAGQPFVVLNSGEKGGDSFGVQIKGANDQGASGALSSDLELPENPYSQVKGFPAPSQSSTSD

Row | Molecule | binding (GST-CGN(1-70)) | binding [1] | binding [2] | binding [3]
1 | GFP-tagged hZO-1 (residues 888-1619) (from UniProt Q07157 888-1619) (domain or fragment) | no binding |  |  | 
2 | GFP-tagged hZO-1 (residues 888-1748) (from UniProt Q07157 888-1748) (domain or fragment) | binds |  |  | 
3 | GFP-tagged hZO-1 (residues 1150-1619) (from UniProt Q07157 1150-1619) (domain or fragment) | no binding |  |  | 
4 | GFP-tagged hZO-1 (residues 1150-1748) (from UniProt Q07157 1150-1748) (domain or fragment) | binds |  |  | 
5 | GFP-tagged hZO-1 (residues 1619-1748), isolated ZU5 fragment (domain or fragment, human, UniProt Q07157 1619-1748, looked up) SAVEEDEDEDGHTVVATARGIFNSNGGVLSSIETGVSIIIPQGAIPEGVEQEIYFKVCRDNSILPPLDKEKGETLLSPLVMCGPHGLKFLKPVELRLPHCDPKTWQNKCLPGDPNYLVGANCVSVLIDHF | binds | binds | binds | binds
